The source of these data is doi:10.1101/2025.06.18.660225.

These are yes or no findings as the source states them, for the method shown. Binding seen in cells or lysates may run through a third protein. Some results given as binding are weak or reduced against the parent protein; the word gives no strength. Where a sequence is shown, tags or fusion partners need not be part of it.

The test deals with T1, Prp45-HA (full-length Prp45) (S. cerevisiae) (UniProt P28004).
T1 sequence: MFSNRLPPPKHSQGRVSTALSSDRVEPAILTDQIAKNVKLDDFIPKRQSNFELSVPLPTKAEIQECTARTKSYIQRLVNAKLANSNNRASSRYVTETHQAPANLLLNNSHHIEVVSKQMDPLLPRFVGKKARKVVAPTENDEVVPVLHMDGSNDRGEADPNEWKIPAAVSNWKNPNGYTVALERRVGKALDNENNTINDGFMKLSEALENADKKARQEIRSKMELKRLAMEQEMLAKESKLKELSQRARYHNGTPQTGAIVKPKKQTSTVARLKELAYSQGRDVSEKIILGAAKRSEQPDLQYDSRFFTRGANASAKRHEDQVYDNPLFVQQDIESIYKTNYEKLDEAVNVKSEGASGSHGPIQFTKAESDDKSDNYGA
The experiment in a line: co-IP.

B1: Lge1-FLAG (protein, UniProt Q02796 1-332)
chain: MSGYTGNNYSRYSSTPPRQRGGYHHARRSRGGAGGSYYRGGNASYGARYNSDYEQPPQEGDLRQTGAYYRNGYTDTRPYYSANSRHYQAQPSPRYNNGTNSYHLPQRGNSQDTNGRTTSASQEDNDEKRVKSRYRNMQADHPRQQPMSVGSTSSRNGSSGNSSTSSTSNGLPPPPSVSSITNNRSYHSSAYPYSSSHTYNNYHHRETPPPPPSNGYYAKGYPVHVPENRSNSDGSSSSVVKKKRILDMKDSPFIYLTDFDKNVKKTNNTESECEKAREVFKESDSIDSALEELNLKINSNELELRLLNNQCDKHALNIQLTQEKLDSLLLMQ
On to B1, for which the binding entry was “binds”.
